In the supplement of paper PMC4604168 (melanoma cell lines):
This is one part of the list. Single values are uncertain, as repeats are few or missing.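 Imaging used 1,536-well plates; nuclei positive for cleaved PARP by antibody were divided by total DNA-stained nuclei to yield the apoptosis fraction. Doses for screening kept most cells viable, and cell lines differ markedly in resting and induced cleaved-PARP levels.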

What was measured:
Assay in all cases: cleaved PARP positive nuclei fraction relative to DMSO control; melanoma cells; higher = more apoptosis
Settings in all cases: library dose: low library concentration; 72 h
501Mel = system: 501Mel
A101D = system: A101D
A2058 = system: A2058
A375 = system: A375
C32 = system: C32
CBRC008 = system: CBRC008 (line from a melanoma biopsy)
CBRC014 = system: CBRC014 (line from a melanoma biopsy)
CBRC016 = system: CBRC016 (line from a melanoma biopsy)
CBRC017 = system: CBRC017 (line from a melanoma biopsy)
CBRC034 = system: CBRC034 (line from a melanoma biopsy)
COLO792 = system: COLO792
COLO800 = system: COLO800
COLO829 = system: COLO829
G361 = system: G361
IPC-298 = system: IPC-298
IST-MEL1 = system: IST-MEL1
LB2518-MEL = system: LB2518-MEL
LOXIMVI = system: LOXIMVI
MEL-HO = system: MEL-HO

Compound	cleaved PARP positive nuclei fraction (501Mel)	cleaved PARP positive nuclei fraction (A101D)	cleaved PARP positive nuclei fraction (A2058)	cleaved PARP positive nuclei fraction (A375)	cleaved PARP positive nuclei fraction (C32)	cleaved PARP positive nuclei fraction (CBRC008)	cleaved PARP positive nuclei fraction (CBRC014)	cleaved PARP positive nuclei fraction (CBRC016)	cleaved PARP positive nuclei fraction (CBRC017)	cleaved PARP positive nuclei fraction (CBRC034)	cleaved PARP positive nuclei fraction (COLO792)	cleaved PARP positive nuclei fraction (COLO800)	cleaved PARP positive nuclei fraction (COLO829)	cleaved PARP positive nuclei fraction (G361)	cleaved PARP positive nuclei fraction (IPC-298)	cleaved PARP positive nuclei fraction (IST-MEL1)	cleaved PARP positive nuclei fraction (LB2518-MEL)	cleaved PARP positive nuclei fraction (LOXIMVI)	cleaved PARP positive nuclei fraction (MEL-HO)
CCCS(=O)(=O)Nc1ccc(F)c(C(=O)c2c[nH]c3ncc(Cl)cc23)c1F + Nc1cccc2c1CN(C1CCC(=O)NC1=O)C2=O [lenalidomide] (first compound 0.08 µM, partner dose 1 µM)	92.5%	94%	98.1%	242%	77%	66.8%	111%	167%	113%	21.9%	83.9%	43.6%	53.9%	28.6%	181%	295%	101%	59.7%	122%
Cc1cc(Nc2cc(N3CCN(C)CC3)nc(/C=C/c3ccccc3)n2)n[nH]1 + COc1ccc(Cl)c(Nc2nc3ccccc3nc2NS(=O)(=O)c2cccc(NC(=O)C(C)(C)N)c2)c1 [XL147] (first compound 0.04 µM, partner dose 0.8 µM)	114%	138%	82.1%	107%	85.9%	212%	89.8%	254%	109%	354%	115%	126%	115%	119%	366%	69.2%	220%	61.3%	64.4%
O=C(O)c1ccc2c(c1)nc(Nc1cccc(Cl)c1)c1ccncc12 + C=C(c1ccc(C(=O)O)cc1)c1cc2c(cc1C)C(C)(C)CCC2(C)C [Bexarotene] (first compound 0.4 µM, partner dose 2 µM)	52.8%	54.9%	243%	57.8%	80.3%	29.4%	199%	233%	179%	185%	163%	104%	108%	155%	89%	130%	66.3%	109%	297%
Cc1cc(Nc2cc(N3CCN(C)CC3)nc(/C=C/c3ccccc3)n2)n[nH]1 + O=C(O)[C@@H]1[O][Sb](=[O])([O][Sb]2(=[O])[O][C@H]([C@H](O)CO)[C@H](O)[C@H](C(=O)O)[O]2)[O][C@H]([C@H](O)CO)[C@@H]1O [stibogluconate] (first compound 0.04 µM, partner dose 2 µM)	203%	44.8%	86.9%	63.4%	87.4%	65.1%	96.8%	41.9%	130%	42.8%	166%	66.1%	67.7%	99.1%	53.4%	92.7%	64.7%	178%	35.9%
Nc1ccn([C@@H]2O[C@H](CO)[C@@H](O)C2(F)F)c(=O)n1 [gemcitabine] + Cn1nnc2c(C(N)=O)ncn2c1=O [temozolomide] (first compound 0.0004 µM, partner dose 2 µM)	71.3%	194%	188%	132%	73.4%	200%	165%	111%	143%	87.9%	50%	87.5%	193%	112%	99.9%	81.3%	122%	220%	76.3%
Cn1c(=O)n(-c2ccc(C(C)(C)C#N)cc2)c2c3cc(-c4cnc5ccccc5c4)ccc3ncc21 + Cc1nc(Nc2ncc(C(=O)Nc3c(C)cccc3Cl)s2)cc(N2CCN(CCO)CC2)n1 [dasatanib] (first compound 0.004 µM, partner dose 0.004 µM)	161%	175%	106%	148%	88.7%	22%	127%	70.6%	115%	48.3%	153%	186%	98.6%	122%	147%	147%	103%	184%	51.5%
C[C@@H](Oc1cc(-c2cnn(C3CCNCC3)c2)cnc1N)c1c(Cl)ccc(F)c1Cl [Crizotinib] + COc1ccc(Cl)c(Nc2nc3ccccc3nc2NS(=O)(=O)c2cccc(NC(=O)C(C)(C)N)c2)c1 [XL147] (first compound 0.2 µM, partner dose 0.8 µM)	52.4%	136%	153%	90.9%	85%	344%	142%	208%	174%	178%	91.5%	86.9%	96.5%	129%	61.5%	137%	106%	343%	56.1%
Cc1cc(Nc2cc(N3CCN(C)CC3)nc(/C=C/c3ccccc3)n2)n[nH]1 + CC(=O)c1c(C)c2cnc(Nc3ccc(N4CCNCC4)cn3)nc2n(C2CCCC2)c1=O [palbociclib] (first compound 0.04 µM, partner dose 0.04 µM)	95.8%	111%	89.1%	218%	85.2%	59.5%	133%	65.3%	95.2%	55.5%	84.3%	141%	42.8%	93.7%	98.4%	70.5%	69.8%	211%	38.1%
O=C(O)c1ccc2c(c1)nc(Nc1cccc(Cl)c1)c1ccncc12 + COc1ccc(Cl)c(Nc2nc3ccccc3nc2NS(=O)(=O)c2cccc(NC(=O)C(C)(C)N)c2)c1 [XL147] (first compound 0.4 µM, partner dose 0.8 µM)	104%	97.9%	180%	161%	272%	49.6%	187%	242%	242%	159%	69.8%	75.7%	113%	131%	101%	139%	106%	132%	147%
CC(C)C[C@H](NC(=O)[C@H](Cc1ccccc1)NC(=O)c1cnccn1)B(O)O [Bortezomib] + CC(=O)c1c(C)c2cnc(Nc3ccc(N4CCNCC4)cn3)nc2n(C2CCCC2)c1=O [palbociclib] (first compound 0.001 µM, partner dose 0.04 µM)	9520%	1110%	111%	114%	104%	2430%	203%	3610%	387%	1150%	141%	155%	177%	6370%	235%	91.1%	517%	430%	238%
CCCS(=O)(=O)Nc1ccc(F)c(C(=O)c2c[nH]c3ncc(Cl)cc23)c1F + COCC[n+]1c2c(n(Cc3cnccn3)c1C)C(=O)c1ccccc1C2=O [YM155] (first compound 0.08 µM, partner dose 0.0004 µM)	72.2%	103%	82.1%	253%	102%	109%	94%	115%	103%	63.4%	93.2%	40.2%	99.5%	82.2%	57.2%	46.8%	235%	226%	87.6%
Nc1ccn([C@@H]2O[C@H](CO)[C@@H](O)C2(F)F)c(=O)n1 [gemcitabine] + Nc1ncn([C@H]2C[C@H](O)[C@@H](CO)O2)c(=O)n1 [decitabine] (first compound 0.0004 µM, partner dose 0.1 µM)	56.9%	171%	108%	137%	38.4%	134%	136%	242%	144%	130%	87.5%	159%	275%	79.6%	43.7%	408%	113%	93%	41.1%
CO[C@H]1C[C@@H]2CC[C@@H](C)[C@@](O)(O2)C(=O)C(=O)N2CCCC[C@H]2C(=O)O[C@H]([C@H](C)C[C@@H]2CC[C@@H](OCCO)[C@H](OC)C2)CC(=O)[C@H](C)/C=C(\C)[C@@H](O)[C@@H](OC)C(=O)[C@H](C)C[C@H](C)/C=C/C=C/C=C/1C [everolimus] + Cc1nc(Nc2ncc(C(=O)Nc3c(C)cccc3Cl)s2)cc(N2CCN(CCO)CC2)n1 [dasatanib] (first compound 0.02 µM, partner dose 0.004 µM)	1260%	188%	216%	537%	85.5%	83.7%	94.6%	131%	145%	81.6%	175%	101%	183%	226%	76.7%	169%	413%	55.7%	150%
CNC(=O)c1cc(Oc2ccc(NC(=O)Nc3ccc(Cl)c(C(F)(F)F)c3)cc2)ccn1 [sorafenib] + C=C(c1ccc(C(=O)O)cc1)c1cc2c(cc1C)C(C)(C)CCC2(C)C [Bexarotene] (first compound 0.4 µM, partner dose 2 µM)	108%	338%	61.2%	36.3%	152%	236%	110%	154%	199%	64.7%	245%	97.3%	16.7%	88%	42.3%	166%	88.8%	49.9%	106%
C=C(c1ccc(C(=O)O)cc1)c1cc2c(cc1C)C(C)(C)CCC2(C)C [Bexarotene] + Nc1cccc2c1CN(C1CCC(=O)NC1=O)C2=O [lenalidomide] (first compound 2 µM, partner dose 1 µM)	139%	101%	67.7%	232%	81.5%	171%	107%	169%	148%	68.6%	191%	93.1%	49.9%	126%	58%	64.8%	98.1%	59.2%	25.9%
CCCS(=O)(=O)Nc1ccc(F)c(C(=O)c2c[nH]c3ncc(Cl)cc23)c1F + Cn1c(Nc2ccc(C(F)(F)F)cc2)nc2cc(Oc3ccnc(-c4ncc(C(F)(F)F)[nH]4)c3)ccc21 [CHIR265] (first compound 0.08 µM, partner dose 0.08 µM)	74.8%	300%	152%	454%	89.5%	130%	111%	112%	104%	71.9%	158%	55.9%	99.9%	163%	178%	72.5%	74.6%	37.5%	101%
Nc1ncn([C@H]2C[C@H](O)[C@@H](CO)O2)c(=O)n1 [decitabine] + Cn1c(Nc2ccc(C(F)(F)F)cc2)nc2cc(Oc3ccnc(-c4ncc(C(F)(F)F)[nH]4)c3)ccc21 [CHIR265] (first compound 0.1 µM, partner dose 0.08 µM)	82.6%	150%	296%	559%	99%	452%	109%	410%	167%	91.1%	480%	117%	90.8%	255%	514%	37.7%	565%	39.9%	198%

Complete entries, quoted from the list. Order of values: cleaved PARP positive nuclei fraction (501Mel) | cleaved PARP positive nuclei fraction (A101D) | cleaved PARP positive nuclei fraction (A2058) | cleaved PARP positive nuclei fraction (A375) | cleaved PARP positive nuclei fraction (C32) | cleaved PARP positive nuclei fraction (CBRC008) | cleaved PARP positive nuclei fraction (CBRC014) | cleaved PARP positive nuclei fraction (CBRC016) | cleaved PARP positive nuclei fraction (CBRC017) | cleaved PARP positive nuclei fraction (CBRC034) | cleaved PARP positive nuclei fraction (COLO792) | cleaved PARP positive nuclei fraction (COLO800) | cleaved PARP positive nuclei fraction (COLO829) | cleaved PARP positive nuclei fraction (G361) | cleaved PARP positive nuclei fraction (IPC-298) | cleaved PARP positive nuclei fraction (IST-MEL1) | cleaved PARP positive nuclei fraction (LB2518-MEL) | cleaved PARP positive nuclei fraction (LOXIMVI) | cleaved PARP positive nuclei fraction (MEL-HO)
CC(C)C[C@H](NC(=O)[C@H](Cc1ccccc1)NC(=O)c1cnccn1)B(O)O [Bortezomib] + CC(=O)c1c(C)c2cnc(Nc3ccc(N4CCNCC4)cn3)nc2n(C2CCCC2)c1=O [palbociclib] (first compound 0.001 µM, partner dose 0.04 µM) as listed: 9520% | 1110% | 111% | 114% | 104% | 2430% | 203% | 3610% | 387% | 1150% | 141% | 155% | 177% | 6370% | 235% | 91.1% | 517% | 430% | 238%
CO[C@H]1C[C@@H]2CC[C@@H](C)[C@@](O)(O2)C(=O)C(=O)N2CCCC[C@H]2C(=O)O[C@H]([C@H](C)C[C@@H]2CC[C@@H](OCCO)[C@H](OC)C2)CC(=O)[C@H](C)/C=C(\C)[C@@H](O)[C@@H](OC)C(=O)[C@H](C)C[C@H](C)/C=C/C=C/C=C/1C [everolimus] + Cc1nc(Nc2ncc(C(=O)Nc3c(C)cccc3Cl)s2)cc(N2CCN(CCO)CC2)n1 [dasatanib] (first compound 0.02 µM, partner dose 0.004 µM) as listed: 1260% | 188% | 216% | 537% | 85.5% | 83.7% | 94.6% | 131% | 145% | 81.6% | 175% | 101% | 183% | 226% | 76.7% | 169% | 413% | 55.7% | 150%
